# Measurements published in patent publication US20140171475A1, “ANIMAL ECTOPARASITE-CONTROLLING AGENT” (SUMITOMO CHEMICAL COMPANY, LIMITED, priority 2011, published 2014).
# At least one structure is not confirmed: it was looked up by name or label, or the drawing left a doubt.
# Experiments:
# [1] = system: Ctenocephalides felis fleas on cat; test: Dropping application against cat-infested fleas; type: in vivo; conditions: dose of 5, 10 and 20 mg/kg, 2 days, 16 days and 30 days after the application
# Description: The previous day of a dropping application, 50 test fleas (Ctenocephalides felis, adult ticks) were deposited on a cat. Before the dropping application, infested flaes were counted.
# Each of the present benzylamide compound (13) (specified weight: 0.375 g, 0.75 g and 1.5 g) was dissolved in diethylene glycol monoethyl ether (6.0 g) to prepare a test solution. Said test solution was directly dropped on the skin of the neck and back of the cat while pushing aside fur thereon at a rate of 0.1 ml per 1 kg of the cat's body weight (dose amount: 5 mg/kg, 10 mg/kg and 20 mg/kg). This is referred to as a test group. On the other hand, diethylene glycol monoethyl ether alone was applied dropwise to a placebo group.
# Two (2) days after the application, the number of living fleas, which were infesting the cats, was examined. When the examination was completed, all infested fleas were removed from the cats.
# Both of 14 days and 28 days after the application, 50 test fleas (Ctenocephalides felis, adult ticks) were repeatedly deposited on a cat respectively. Two (2) days after the repeated deposition, the number of living ticks, which were infesting the […], was examined respectively. When each of the examination was completed, all infested ticks were removed from the dogs.
# (§1) The infestation rate and control rate were calculated by the following formulae: […]
# [2] = system: Haemaphysalis longicornis (young ticks) on dog (beagle); test: Oral administration against dog-infested ticks; type: in vivo; conditions: oral dose of 40 mg/kg, 2 days after the administration
# Description: The previous day of an oral administration, 100 test ticks (Haemaphysalis longicornis, young ticks) were deposited on a dog (beagle). Before the oral administration, infested ticks were counted.
# A gelatin capsule in which the present benzylamide compound (13) was filled into a gelatin capsule so that the amount of the present benzylamide compound […] administered was 40 mg per 1 kg of the dog's body weight was orally administered to the dog conpulsively. This is referred to as a test group. On the other hand, a geratin capsule alone was orally administered to a placebo group.
# Two (2) days after the oral administration, the number of living ticks, which were infesting the dogs, was examined. When the examination was completed, all infested ticks were removed from the dogs.
# as §1
# Method of calculating infestation rate and control rate at the initial stage (2 days) after the application:
# Infestation rate (%) at X days after application=(number of living ticks at X days/number of living ticks before application)×100
# Control rate (%) at X days after application {(infestation rate of test group before application−infestation rate of test group at X days)/infestation rate of test group before application}×100 […]
smiles,measurement,setting,value
O=C(NCc1cc(C2=NOC(c3cc(Cl)cc(Cl)c3)(C(F)(F)F)C2)ccc1Cl)C1CC1 (centres unmarked) [Compound (13)],tick control activities (in words),[1],excellent tick control activities
same,tick control activities (in words),[2],excellent tick control activities
